Measured values from paper PMC7433898.
Results are given in words; binding and its absence hold for the method and conditions named. In cells and extracts the contact can be indirect. Some results given as binding are weak or reduced against the parent protein; the word gives no strength. For part of these data: Sequences can lack the tags named with a protein.

Amino acid sequences for entries named in this document (tags omitted).
UniProt P08047: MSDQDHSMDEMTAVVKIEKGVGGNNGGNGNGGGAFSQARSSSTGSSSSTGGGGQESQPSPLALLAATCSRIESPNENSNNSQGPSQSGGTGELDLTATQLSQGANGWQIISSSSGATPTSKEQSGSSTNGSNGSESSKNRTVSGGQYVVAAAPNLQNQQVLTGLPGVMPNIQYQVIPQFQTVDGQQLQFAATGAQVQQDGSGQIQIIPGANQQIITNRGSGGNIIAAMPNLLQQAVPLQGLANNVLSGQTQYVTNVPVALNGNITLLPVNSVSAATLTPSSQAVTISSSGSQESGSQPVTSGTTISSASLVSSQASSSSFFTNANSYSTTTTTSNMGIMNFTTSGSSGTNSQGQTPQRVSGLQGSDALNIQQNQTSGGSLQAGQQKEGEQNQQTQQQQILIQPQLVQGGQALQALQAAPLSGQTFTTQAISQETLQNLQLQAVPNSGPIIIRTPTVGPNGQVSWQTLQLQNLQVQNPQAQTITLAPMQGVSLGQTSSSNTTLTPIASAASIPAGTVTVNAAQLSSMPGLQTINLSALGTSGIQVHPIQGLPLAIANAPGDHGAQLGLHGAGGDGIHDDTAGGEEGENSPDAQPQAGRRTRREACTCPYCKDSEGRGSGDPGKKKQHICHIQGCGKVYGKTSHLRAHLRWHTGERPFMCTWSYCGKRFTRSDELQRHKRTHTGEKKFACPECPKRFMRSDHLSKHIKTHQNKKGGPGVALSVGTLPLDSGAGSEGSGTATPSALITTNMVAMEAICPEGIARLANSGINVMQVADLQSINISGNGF
UniProt Q16666: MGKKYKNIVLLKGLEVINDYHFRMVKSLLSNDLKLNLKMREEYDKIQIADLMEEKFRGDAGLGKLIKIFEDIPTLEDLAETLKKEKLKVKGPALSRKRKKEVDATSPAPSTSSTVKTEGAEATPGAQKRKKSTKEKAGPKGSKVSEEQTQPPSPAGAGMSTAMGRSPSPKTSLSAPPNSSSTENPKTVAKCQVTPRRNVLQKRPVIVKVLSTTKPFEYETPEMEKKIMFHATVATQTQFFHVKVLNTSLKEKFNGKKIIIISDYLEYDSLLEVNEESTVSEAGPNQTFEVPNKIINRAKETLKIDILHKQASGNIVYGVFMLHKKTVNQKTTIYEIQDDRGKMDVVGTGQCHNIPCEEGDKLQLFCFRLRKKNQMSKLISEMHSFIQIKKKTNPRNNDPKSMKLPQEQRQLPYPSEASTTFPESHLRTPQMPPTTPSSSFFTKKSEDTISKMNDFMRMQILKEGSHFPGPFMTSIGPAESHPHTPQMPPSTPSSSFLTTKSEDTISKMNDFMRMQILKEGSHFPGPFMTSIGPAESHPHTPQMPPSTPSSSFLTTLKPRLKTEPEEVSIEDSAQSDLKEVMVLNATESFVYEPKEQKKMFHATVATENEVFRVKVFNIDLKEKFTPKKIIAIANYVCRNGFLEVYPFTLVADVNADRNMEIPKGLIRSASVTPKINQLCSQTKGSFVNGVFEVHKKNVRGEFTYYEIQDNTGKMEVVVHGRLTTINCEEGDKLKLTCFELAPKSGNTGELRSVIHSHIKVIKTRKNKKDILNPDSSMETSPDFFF

Columns and labels:
[1] = biological target: transcription factor Sp1, endogenous in primary CD4+ T cells (human (endogenous in primary CD4+ T cells)) (UniProt P08047); assay: proximity ligation; in situ PLA on fixed primary human CD4+ T lymphocytes three days post-isolation; rabbit anti-Sp1 and mouse anti-IFI16 antibodies, endogenous proteins
[2] = biological target: transcription factor Sp1, endogenous in primary CD4+ T cells (human (endogenous in primary CD4+ T cells)) (UniProt P08047); assay: co-IP; endogenous Sp1 immunoprecipitated with rabbit anti-Sp1 (or control IgG) on magnetic beads from lysates of activated primary CD4+ T lymphocytes; Co-IP lysis buffer with 0.2% Triton-X and 0.3% NP40; 4 h at 4°C; Western blot
[3] = biological target: HA-tagged IFI16 (human) (UniProt Q16666); assay: co-IP; HEK293T transfected with C-terminally HA-tagged PYHIN proteins; lysates untreated or treated with benzonase (750 U/ml, 1 mM MgCl2, 2 h, room temperature); anti-HA antibody and protein A/G magnetic beads; washes with 300 mM NaCl, 0.5% NP40; endogenous Sp1 detected by blot
[4] = biological target: T1, HA-tagged absent in melanoma 2 (AIM2) (human) (UniProt O14862); assay: as above
T1 sequence: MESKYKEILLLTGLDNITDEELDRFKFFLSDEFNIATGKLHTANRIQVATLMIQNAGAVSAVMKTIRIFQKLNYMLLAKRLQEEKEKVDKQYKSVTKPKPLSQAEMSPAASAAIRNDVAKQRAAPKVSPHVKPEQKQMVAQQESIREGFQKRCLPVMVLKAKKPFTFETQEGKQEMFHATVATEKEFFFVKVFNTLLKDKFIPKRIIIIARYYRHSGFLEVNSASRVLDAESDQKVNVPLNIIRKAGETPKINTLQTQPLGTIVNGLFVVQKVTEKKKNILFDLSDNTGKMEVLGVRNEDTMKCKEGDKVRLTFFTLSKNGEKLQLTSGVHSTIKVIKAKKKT

[5] = biological target: T2, HA-tagged myeloid cell nuclear differentiation antigen (MNDA) (human) (UniProt P41218); assay: as above
T2 sequence: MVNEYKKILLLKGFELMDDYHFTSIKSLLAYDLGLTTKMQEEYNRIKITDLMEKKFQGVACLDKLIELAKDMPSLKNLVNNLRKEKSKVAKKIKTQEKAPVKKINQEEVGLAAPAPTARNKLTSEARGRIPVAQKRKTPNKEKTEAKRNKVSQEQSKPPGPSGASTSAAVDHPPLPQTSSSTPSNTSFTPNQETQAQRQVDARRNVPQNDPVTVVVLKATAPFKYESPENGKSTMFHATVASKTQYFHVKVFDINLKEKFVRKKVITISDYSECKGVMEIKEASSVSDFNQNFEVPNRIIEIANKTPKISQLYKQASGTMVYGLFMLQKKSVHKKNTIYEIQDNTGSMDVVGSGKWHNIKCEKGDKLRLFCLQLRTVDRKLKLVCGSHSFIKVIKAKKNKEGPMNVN

[6] = biological target: T3, HA-tagged pyrin and HIN domain family member 1 (PYHIN1) (human) (UniProt Q6K0P9); assay: as above
T3 sequence: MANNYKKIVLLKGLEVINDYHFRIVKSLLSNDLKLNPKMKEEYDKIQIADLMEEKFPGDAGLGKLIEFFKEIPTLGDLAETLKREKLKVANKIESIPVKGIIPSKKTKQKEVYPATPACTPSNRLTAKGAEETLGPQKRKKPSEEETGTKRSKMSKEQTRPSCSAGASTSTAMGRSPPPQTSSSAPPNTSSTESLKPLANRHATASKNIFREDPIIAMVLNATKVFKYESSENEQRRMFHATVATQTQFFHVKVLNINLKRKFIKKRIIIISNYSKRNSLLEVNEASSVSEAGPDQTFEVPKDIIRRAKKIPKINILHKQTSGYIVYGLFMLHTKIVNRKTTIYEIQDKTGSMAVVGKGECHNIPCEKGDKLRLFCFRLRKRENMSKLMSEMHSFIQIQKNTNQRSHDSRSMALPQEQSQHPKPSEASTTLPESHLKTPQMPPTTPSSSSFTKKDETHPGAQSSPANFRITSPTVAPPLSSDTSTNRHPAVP

binding [1]	binding [2]	binding [3]	binding [4]	binding [5]	binding [6]	Substance
binds	binds					γ-interferon-inducible protein 16 (IFI16), endogenous in primary CD4+ T cells (from UniProt Q16666 1-785)
		binds	binds	binds	binds	transcription factor Sp1, endogenous in HEK293T cells (from UniProt P08047 1-785)
